PubChem BioAssay AID743454 – Peter MacCallum Cancer Centre | 2014
Assay: 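Knock-downs lowering viability or raising caspase 3/7 activity in vorinostat-treated resistant cells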 (primary screen). Cell system: human HCT116-VR colon cancer cells, selected for vorinostat resistance. Knock-down reagent: siRNA pool against human genes, 40 nM siRNA pool. Timing: vorinostat for 24 h, read-out about 72 h after transfection. Challenge: vorinostat at 2.5 µM final. Read-out: 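Cell viability by CellTiter-Fluor and caspase 3/7 activity by luminescence, each scaled to mock wells per plate, duplicates averaged, then robust z-scored over all plates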. Reading the numbers: viability robust z-score: higher = more viable cells than screen typical; caspase robust z-score: higher = more caspase 3/7 activity than screen typical. Rule for the call: 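a knock-down is a hit when classed RV1 or RV2 for lowered viability, or CA1 or CA2 for caspase activation; those lethal without drug were dropped; hits were retested singly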.
Here is one part, drawn at random, of about 18,000 deposited reagents. 450 of them (2.5%) were called active. 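Single biological run; no consistent viability z cut-off exists, so the class columns, not z-scores, define the calls.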

gene symbol	PubChem SID	viability hit class	caspase hit class	viability robust z-score	caspase robust z-score	outcome
CIB4	SID135624322	no change	no change	-0.36	-0.22	inactive
MMP1	SID134311376	no change	no change	0.16	-0.28	inactive
SFRP4	SID152152319	no change	no change	-1.6	-0.82	inactive
TMEM64	SID135624522	no change	no change	1.25	-0.08	inactive
COLCA1	SID152150973	no change	no change	0.38	2.51	inactive
ZNF766	SID135624405	no change	no change	-0.66	-0.85	inactive
TTC17	SID152154378	no change	no change	-2.41	1.49	inactive
PLEKHA1	SID135623443	no change	no change	0.73	0.6	inactive
DEFB125	SID152150745	no change	no change	0.42	-0.75	inactive
HMGN1	SID134319603	no change	no change	-2.66	2.96	inactive
CALM1	SID152156420	no change	no change	-0.36	-1.34	inactive
TTYH2	SID135621987	no change	no change	-0.14	-0.1	inactive
TSPAN31	SID135620728	no change	no change	-0.38	-0.34	inactive
CSNK1G2-AS1	SID135623050	no change	no change	-0.09	-1	inactive
SLC38A4	SID152155097	no change	no change	-0.3	-0.51	inactive
HAUS8	SID152152451	no change	no change	0.46	0.18	inactive
ZBTB24	SID134312043	no change	no change	-0.25	0.86	inactive
QTRT2	SID134322269	no change	no change	-0.26	3.64	inactive
PAAF1	SID152154864	no change	no change	-0.66	0.32	inactive
RFPL2	SID135621272	no change	no change	-1.62	2.46	inactive
LCN15	SID134329378	no change	no change	-0.34	-0.18	inactive
MZT1	SID135625309	no change	no change	-1.74	0.06	inactive
ATP6V0E1	SID152153357	no change	no change	-0.58	-1.37	inactive
SPP2	SID152154509	no change	no change	0.1	0.82	inactive
CTPS1	SID152149436	no change	no change	0.31	-0.63	inactive
VPS35	SID134315281	no change	no change	-1.68	2.75	inactive
SSPOP	SID135624798	no change	no change	1.15	-0.69	inactive
SPANXN3	SID135624489	no change	no change	-0.39	0.94	inactive
CDC42	SID152147338	no change	no change	-0.3	1.15	inactive
TAS1R1	SID135621066	no change	no change	1.15	-0.44	inactive
SEMA3G	SID134324154	no change	no change	-0.13	1.22	inactive
CCNE2	SID135620638	no change	no change	0.55	-0.38	inactive
MAPK6	SID56478707	no change	no change	-0.08	-0.56	inactive
GULP1	SID135621565	no change	no change	0.12	-1.05	inactive
COL16A1	SID152151745	no change	no change	-0.94	0.47	inactive
SLC1A6	SID134312478	no change	no change	-1.58	0.47	inactive
ALDH7A1	SID135621628	no change	no change	-1.38	2.07	inactive
RGS5	SID152155753	no change	no change	0.79	1.9	inactive
SLC46A1	SID152151930	no change	no change	0.2	-0.22	inactive
AMOTL2	SID134317463	no change	no change	-0.7	-1.24	inactive
NOL11	SID152154211	no change	no change	-1.7	1.72	inactive
SMARCD2	SID135622118	no change	CA1 (caspase activation)	-1.04	5.98	active
UPK1B	SID134321207	no change	no change	-0.08	0.82	inactive
OSGEP	SID152155472	no change	no change	-0.92	-1.08	inactive
CNGA4	SID152153464	no change	no change	-0.63	1.54	inactive
STXBP5	SID134321228	no change	no change	0.34	0.03	inactive
ACTMAP	SID135624654	no change	no change	0.38	3.78	inactive
GAS6	SID134313905	no change	no change	-1.94	1.44	inactive
SETD3	SID134318906	no change	no change	-0.88	-0.52	inactive
SARS1	SID134317701	no change	no change	-2.39	0.22	inactive
SLC36A3	SID134312598	no change	no change	0.09	1.38	inactive
DSCC1	SID134318466	no change	no change	0.36	-0.7	inactive
MGP	SID152153082	no change	no change	-0.84	-0.21	inactive
IGHMBP2	SID152154119	no change	no change	-1.04	0.43	inactive
ZNF362	SID134320718	no change	no change	1.09	-0.36	inactive
MITD1	SID134320571	no change	no change	1.26	0.22	inactive
TEKT4	SID135622987	no change	no change	-0.11	3.57	inactive
ZNF382	SID135623563	no change	no change	-1.61	1.55	inactive
TRIM15	SID152152663	no change	no change	-0.37	1.12	inactive
MYH7B	SID152154450	no change	no change	0.32	0.79	inactive
METTL9	SID152155353	no change	no change	1.24	1.06	inactive
HAGH	SID135622247	no change	no change	0.14	1.75	inactive
MCF2	SID135620753	no change	no change	0.38	-0.78	inactive
KIAA1143	SID152155574	no change	CA1 (caspase activation)	-1.85	5.21	active
ARFIP2	SID134317070	no change	no change	-0.45	0.31	inactive
YTHDF2	SID152153310	no change	no change	-2.12	0.27	inactive
HUNK	SID56478785	no change	no change	-2.82	1.42	inactive
TMEM14A	SID152150141	no change	no change	1.42	-0.18	inactive
ZNF211	SID134323888	no change	no change	0.72	0.38	inactive
KIR3DS1	SID135623961	no change	no change	2.04	0.99	inactive
CALR	SID134313083	no change	no change	-0.31	-0.76	inactive
ZNF646	SID152149790	no change	CA2 (caspase activation)	0.17	5.83	active
OGA	SID152155699	no change	no change	1.08	0.26	inactive

Only “caspase hit class” (8 entries from above):
AMOTL2 [SID134317463]: no change
NOL11 [SID152154211]: no change
SMARCD2 [SID135622118]: CA1 (caspase activation)
UPK1B [SID134321207]: no change
OSGEP [SID152155472]: no change
CNGA4 [SID152153464]: no change
STXBP5 [SID134321228]: no change
ACTMAP [SID135624654]: no change
